Test in all cases: co-IP; each 35S-labelled in vitro translated Hermes/Rbpms protein mixed with its myc-tagged counterpart and incubated; immunoprecipitation with anti-Myc antibody; western blotting and autoradiography (PhosphorImager); no nanos RNA present
(A western blot detects proteins with antibodies after separation by electrophoresis.)

Chains of the proteins cited; added tags and fusions are not shown. Lines headed by an entry give the natural chain unless they say otherwise; changes in a name come on top. A line that says so, or that is headed by a name, gives the form on record, which may keep a tag or linker.
UniProt Q9YGP5: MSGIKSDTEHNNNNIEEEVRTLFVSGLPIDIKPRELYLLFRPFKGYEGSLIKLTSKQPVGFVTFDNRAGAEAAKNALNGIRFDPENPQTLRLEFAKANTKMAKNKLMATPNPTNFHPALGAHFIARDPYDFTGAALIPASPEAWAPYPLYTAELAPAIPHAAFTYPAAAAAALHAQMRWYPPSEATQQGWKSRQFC
Hermes/Rbpms deletion A (a.a. 101-121 deleted), in vitro translated (Q9YGP5, form named): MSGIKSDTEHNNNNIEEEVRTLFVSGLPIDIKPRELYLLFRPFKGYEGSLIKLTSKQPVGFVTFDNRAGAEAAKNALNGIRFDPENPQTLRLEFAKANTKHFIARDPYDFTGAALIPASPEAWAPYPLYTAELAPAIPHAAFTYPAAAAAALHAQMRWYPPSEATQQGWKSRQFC
Hermes/Rbpms deletion B (a.a. 122-161 deleted), in vitro translated (Q9YGP5, form named): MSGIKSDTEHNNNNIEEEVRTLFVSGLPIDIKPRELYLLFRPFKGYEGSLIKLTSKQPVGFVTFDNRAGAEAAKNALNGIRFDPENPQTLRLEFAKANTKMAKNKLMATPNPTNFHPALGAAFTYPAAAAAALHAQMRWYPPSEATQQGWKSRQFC

In assay [1] the target is Hermes/Rbpms, wild type, in vitro translated (myc-tagged copy and untagged copy) (Xenopus) (UniProt Q9YGP5).
The target in assay [2] is Hermes/Rbpms deletion C (a.a. 164-198 deleted; missing the last 34 amino acids), in vitro translated (Xenopus) (UniProt Q9YGP5).
Assay [3] concerns the target Hermes/Rbpms deletion A (a.a. 101-121 deleted), in vitro translated (Xenopus) (UniProt Q9YGP5).
Assay [4] addresses Hermes/Rbpms deletion B (a.a. 122-161 deleted), in vitro translated (Xenopus) (UniProt Q9YGP5).

No constants are given. Whether binding was seen depends on the method and setting. Binding seen in cells or lysates may run through a third protein. Some entries that bind do so weakly or less than the wild type.

Turning to “Hermes/Rbpms, wild type, in vitro translated (myc-tagged copy and untagged copy) (from UniProt Q9YGP5 1-196)”, in assay [1], the binding entry is reported as “binds”.
Consider “Hermes/Rbpms deletion C (a.a. 164-198 deleted; missing the last 34 amino acids), in vitro translated (from UniProt Q9YGP5 1-163) (domain or fragment)”, for which the binding result in assay [2] was “no binding”.
For “Hermes/Rbpms deletion A (a.a. 101-121 deleted), in vitro translated (from UniProt Q9YGP5 1-196)”, in assay [3], the binding result was “binds”.
Turning to “Hermes/Rbpms deletion B (a.a. 122-161 deleted), in vitro translated (from UniProt Q9YGP5 1-196)”, in assay [4], the binding result is “binds”.

These data come from publication PMC4798249.
